Data: PubChem BioAssay AID504847 (National Center for Advancing Translational Sciences (NCATS), 2011)
In all, about 400,000 compounds went through this assay and about 3,700 (0.93%) were called active. The shares of active, inactive and inconclusive entries below differ from those in the screen. The call rests on the fitted dose curve; in most records, active means well fitted inhibition curve with a large enough effect; inconclusive means small, poorly fitted or top-dose-only effect, or another doubt; inactive means no such curve, though single readings can be large or run the other way. Potencies beside an inconclusive call are fits to weak or partial responses and may not hold up.

Amino acid sequences for entries named in this document (tags omitted). A change or cut given only in a name is not applied to a line headed by its entry.
UniProt P11473: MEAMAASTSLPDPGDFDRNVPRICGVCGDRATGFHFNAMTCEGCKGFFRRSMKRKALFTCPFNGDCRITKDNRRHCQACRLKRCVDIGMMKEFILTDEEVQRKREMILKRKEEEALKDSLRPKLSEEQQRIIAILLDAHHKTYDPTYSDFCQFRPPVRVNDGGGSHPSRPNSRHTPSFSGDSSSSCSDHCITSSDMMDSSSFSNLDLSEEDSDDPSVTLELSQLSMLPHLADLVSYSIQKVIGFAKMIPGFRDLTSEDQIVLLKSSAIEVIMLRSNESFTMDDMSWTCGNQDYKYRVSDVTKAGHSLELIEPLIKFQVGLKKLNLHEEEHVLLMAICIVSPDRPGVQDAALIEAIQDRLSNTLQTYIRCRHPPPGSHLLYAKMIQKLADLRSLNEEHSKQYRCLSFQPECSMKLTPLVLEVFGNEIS

target: Vitamin D3 receptor (Homo sapiens) (UniProt P11473); test: Inhibitors of the vitamin D receptor (VDR): qHTS; conditions: VDR-SRC2-3 peptide fluorescence polarization, 2 h; max response, negative = inhibition: active compounds read low
How it was run: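 Reagent solutions, kept cold and dark, are dispensed first; compounds are then pinned in at 23 nl, plates briefly spun, and incubated 2 h at ambient temperature. Inhibition of VDR–SRC2-3 peptide binding is read by fluorescence polarization.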
On the % scale 0 is the no-effect control and ±100 the full control effect; potency means the concentration at half of the fitted maximal effect.

Potency, active:
CC(=O)Nc1ccc2c(c1)Cc1cc(N3C(=O)C=CC3=O)ccc1-2 28.2 µM
c1csc(CNc2nc(-c3ccoc3)nc3ccccc23)c1 22.4 µM
c1coc(-c2nc(-c3ccco3)c(-c3ccco3)nc2-c2ccco2)c1 39.8 µM
COC(=O)c1c(-c2cccnc2)csc1NC(=O)c1ccc2c(c1)OCO2 89.1 µM
COc1cc(O)c2c(c1)C(=O)c1cc(C)cc(O)c1C2=O 22.4 µM
Cc1ccc(Cn2c(SCCN3CCCCC3)nc3c2c(=O)[nH]c(=O)n3C)cc1 89.1 µM
C=C[C@@H](C1=CC(=O)C(OC)=C(OC)C1=O)c1ccccc1 3.98 µM
COCCNC(=O)/C(C#N)=C/c1ccc(OC(=O)c2cccs2)c(OC)c1 70.8 µM

Potency, inconclusive:
COc1ccc(/C=C2\COc3ccccc3C2=O)c(OC)c1 39.8 µM [inhibitor, single point]
CC(=O)N1CCC[C@@]2(CCN(Cc3ccc(C#N)cc3)C2)C1 79.4 µM [inhibitor, single point]
CCN(CC)S(=O)(=O)c1ccc(NN)nc1 56.2 µM [inhibitor, partial curve, poor fit]
Cc1ccc(CNC(=O)C2CCC(=O)N(Cc3cccc(C(F)(F)F)c3)C2)o1 (stereo not given) 89.1 µM [inhibitor, single point]
NNc1nc2c(Cl)c(Cl)ccc2s1 89.1 µM [inhibitor, single point]
CC(=O)N1c2ccc(S(=O)(=O)NCCC(=O)N3CCCC(C)C3)cc2CC1C (stereo not given) 39.8 µM [inhibitor, single point]
O=C(O)/C=C\C(=O)Nc1ccccc1C#Cc1ccc(Br)cc1 89.1 µM [inhibitor, single point]
Cc1ccc(NC(=O)COC(=O)CCc2nc3ccccc3n2-c2ccccc2)c(C)c1 31.6 µM [inhibitor, single point]
Cc1ccc(S(=O)(=O)Nc2ccc3oc(=O)sc3c2)c(C)c1 100 µM [inhibitor, single point]
O=C(c1cc(-c2ccco2)nn1-c1cccc(Cl)c1)N1CCCCC1 70.8 µM [inhibitor, partial curve, poor fit]
CCOC(=O)/C=C/C(=O)OCC(=O)Nc1cccc(Br)c1 79.4 µM [inhibitor, partial curve, poor fit]
COC(=O)CN1C(=O)[C@H]2[C@@H](c3ccc(C)o3)N3C(=O)CN(Cc4ccc(-c5ccccc5)cc4)C(=O)[C@@]3(C)[C@H]2C1=O 89.1 µM [inhibitor, partial curve, poor fit]
O=C(/C=C\NCC(=O)c1ccccc1)c1ccc2ccccc2c1 100 µM [inhibitor, partial curve, poor fit]
Oc1c(CN2CCCC(C(F)(F)F)C2)cc(Cl)c2ccccc12 (stereo not given) 89.1 µM [inhibitor, single point]
CC1=CC2C(C(O)CC3(C)C2CC(C)C32OCOC23COCO3)C2(C)C/C(=C\O)C(=O)C=C12 (stereo not given) 89.1 µM [inhibitor, single point]
CCN(CC)C(=O)c1ccc2c(c1)N(Cc1ccc(C(F)(F)F)cc1)C(=O)c1ccccc1S2 79.4 µM [inhibitor, partial curve, poor fit]
Cc1ccc(NNC(=O)c2ccno2)cc1C 79.4 µM [inhibitor, single point]
Cc1ccc(NC(=O)c2sc3nc(-c4cccs4)ccc3c2N)cc1F 50.1 µM [inhibitor, partial curve, poor fit]
O=[N+]([O-])c1ccc2nc(-c3ccc(Cl)cc3)n(OCc3ccccc3)c2c1 79.4 µM [inhibitor, single point]
S=c1[nH]c2cnc(Cl)nc2[nH]1 100 µM [inhibitor, single point]
Oc1c(C(c2ccccn2)N2CCC(Cc3ccccc3)CC2)cc(Cl)c2cccnc12 (stereo not given) 56.2 µM [inhibitor, partial curve, poor fit]
CC(C)NC(=S)NNc1nc2ccccc2s1 79.4 µM [inhibitor, partial curve, poor fit]
CN(C)c1ccc(S(=O)(=O)NCC(=O)NCCOc2ccccc2F)cc1[N+](=O)[O-] 89.1 µM [inhibitor, single point]
CCc1ccc(/C=C/C(=O)C2C(=O)c3ccccc3C2=O)cc1 79.4 µM [inhibitor, single point]
O=[N+]([O-])/C=C/c1cc2ccccc2[nH]1 89.1 µM [inhibitor, single point]
Clc1ccccc1-c1cncnc1NCc1cccs1 56.2 µM [inhibitor, partial curve, poor fit]
O=c1cc(CO)oc(C(Nc2ccccn2)c2ccc(C(F)(F)F)cc2)c1O (stereo not given) 63.1 µM [inhibitor, partial curve, poor fit]
Cc1ccc2c(c1)C(=O)C(=O)N2Cc1ccc(F)cc1 56.2 µM [inhibitor, partial curve, poor fit]
CCOC(=O)CSc1c(-c2cccs2)[nH]c2ccccc12 79.4 µM [inhibitor, partial curve, poor fit]
CCc1cccc(C)c1NC(=O)CCCn1c(=O)c2cccn2c2cccnc21 39.8 µM [inhibitor, single point]
CCOC(=O)C1=NN(c2ccccc2)C(=O)/C1=C\c1ccc(N(C)C)cc1 12.6 µM [inhibitor, full curve]
N#CCCn1cc(C=C(C#N)C#N)c(-c2ccc(Cl)cc2)n1 28.2 µM [inhibitor, partial curve, poor fit]
Cc1noc(C)c1C(=O)N1CCC2(CCN(Cc3ccc(C#N)cc3)CC2)CC1 56.2 µM [inhibitor, partial curve]
Cc1ccc(NNC(=O)c2cccs2)cc1Cl 14.1 µM [inhibitor, full curve, poor fit]
Fc1ccc(OCc2nn3c(Cn4nnc5ccccc54)nnc3s2)cc1 89.1 µM [inhibitor, partial curve, poor fit]
CCCC(C)NC(=O)CN(c1ccc2c(c1)OCCO2)S(=O)(=O)c1ccccc1 (stereo not given) 89.1 µM [inhibitor, partial curve, poor fit]

Three consecutive records from above:
Potency, inconclusive:
Cc1ccc(NC(=O)COC(=O)CCc2nc3ccccc3n2-c2ccccc2)c(C)c1 31.6 µM [inhibitor, single point]
Cc1ccc(S(=O)(=O)Nc2ccc3oc(=O)sc3c2)c(C)c1 100 µM [inhibitor, single point]
O=C(c1cc(-c2ccco2)nn1-c1cccc(Cl)c1)N1CCCCC1 70.8 µM [inhibitor, partial curve, poor fit]

Following part.

Max response, negative = inhibition, inactive:
O=C(CCc1c[nH]c2ccccc12)NCc1ccc2c(c1)OCO2 11.7%
O=C(Nc1cccc(/C=C/c2ccccn2)c1)c1ccc(-n2cncn2)c([N+](=O)[O-])c1 9.78%
O=C(N/N=C/c1ccc(Cl)cc1)c1cc2c(s1)-c1ccccc1CC2 14%
O=C(NCc1ccc(Cl)cc1)C1CCN(c2nn3cc(-c4ccc(F)cc4)nc3s2)CC1 -5.07%
CC(C)(C)c1ccc(C2CC2C(=O)N/N=C\c2ccc[nH]2)cc1 (stereo not given) 5.12%
CSc1ccccc1OCc1cc(C(=O)N2CCN(C)C(c3ccccc3)C2)no1 (stereo not given) 11%
CCOC(=O)c1[nH]c2cc(OC)c(OC)cc2c1NC(=O)C(C)N1CCN(Cc2ccccc2)CC1 (stereo not given) 8.37%
COc1ccc(NC(=O)c2ccco2)cc1NC(=O)COc1ccccc1[N+](=O)[O-] -7.49%
CCOc1ccc(/C=N/NC(=O)c2cc3c(OC)cc(OC)cc3[nH]2)cc1OC -15.6%
CCCN(C(=O)CSCc1c(C)noc1C)c1c(N)n(Cc2ccccc2)c(=O)[nH]c1=O -1.68%
CCOC(=O)C1(C)NC(c2ccco2)C2C(=O)N(C)C(=O)C21 (stereo not given) 24%
Cc1c(-c2ccccc2)n[nH]c1C(=O)NN -9.14%
CCOC(=O)c1c(C)[nH]c(CCC(=O)NCCCN2CCN(c3cc(Cl)ccc3C)CC2)c1C -3.92%
CCc1ccccc1NC(=O)Cn1c(=O)n(CCCS(=O)(=O)C2CCCCC2)c(=O)c2ccccc21 -8.07%
CCCCCCCCCCN1CCOCCOCCN(CCCCCCCCCC)CCOCCOCC1 3.89%
CCNC(=S)N(CCc1c(C)[nH]c2ccc(F)cc12)Cc1cccnc1 -28.6%
O=C(NNC(=O)c1cc2cc(Br)ccc2oc1=O)c1ccc(O)cc1O -13.8%
COc1cccc(-c2nc(N3CCN(c4ccccc4)CC3)c3ccccc3n2)c1O -11.5%
Cc1cc(O)c2c(c1)OC1(C)CCC3C(C)(C)CCCC34COC2C14 (stereo not given) -25.7%
COc1ccc2c(CC(=O)OCC(=O)Nc3ccc(C)cc3)coc2c1 -1.34%
S=C(NCCc1ccccc1)Nc1ncccn1 2.45%
Cc1ccc(C)n1NC(=O)c1cccs1 -6.69%
CCc1cccc(C)c1NC(=O)CCCn1c(=O)c2cccn2c2cccnc21 -2.79%
COc1ccc(CNC(=O)CN2C(=O)CCSc3ccc(S(=O)(=O)N4CCCC4)cc32)cc1 13.1%
COc1cccc(/C=C/C(=O)OCC(=O)Nc2cccc(S(=O)(=O)NC3=NCCCCC3)c2)c1 7.08%
Cc1ccc(C2=NN(C(=O)CNCCO)C(c3cccs3)C2)cc1 (stereo not given) 3.68%
